Measured values: PubChem BioAssay AID504467 (National Center for Advancing Translational Sciences (NCATS), 2011)
Several values for one entry are separate records, joined by “and”; a condition that tells them apart may be missing. Identical values can stand only once. In all, about 330,000 compounds went through this assay and about 7,700 (2.3%) were called active. This list was built around the results that the source calls inconclusive (neither active nor inactive); the mix of calls is not that of the screen. Calls come from the whole dose curve; as a rule, active = well fitted inhibition curve with a large enough effect; inconclusive = small, poorly fitted or top-dose-only effect, or effect the other way; inactive = flat fitted curve, though single readings scatter. Potencies of inconclusive entries are doubtful fits and often do not repeat.

Experiment: qHTS screen for small molecules that inhibit ELG1-dependent DNA repair in human embryonic kidney (HEK293T) cells expressing luciferase-tagged ELG1; note: nearly all actives have a fitted effect of over 55% in size
Conditions: HEK293T ELG1-luciferase reporter, luminescence, 16 h, DNA damage induced by 5-fluorouridine; series mostly up to 46.1 µM
Method in brief: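 Cells (2,000 per well) received 5-fluorouridine plus test compound or DMSO and were incubated 16 hr at 37 °C, 5% CO2. Luciferase activity was read by luminescence 30 min after ONE-Glo addition; signal suppression marked inhibition of damage-induced ELG1 function.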
Potency is the fitted concentration of half-maximal effect.

| SMILES | Potency |
| --- | --- |
| CN(C)c1nnnn1-c1cccc(Oc2ncc(C(F)(F)F)cc2Cl)c1 | inconclusive: 29.1 µM [inhibitor, single point] |
| Brc1cccc(-c2nnc(-c3ccccc3)o2)c1 | inconclusive: 10.3 µM [activator, partial curve, poor fit] |
| C/C(=N\NC(=O)COc1ccccc1[N+](=O)[O-])c1cccs1 | inconclusive: 9.2 µM [activator, partial curve] |
| CCOC(=O)c1c(C)[nH]c(C(=O)OCC(=O)N2CCCC2=O)c1C | inconclusive: 16.4 µM [activator, single point] |
| CCC(CC)C(=O)Nc1cccc(C(=O)Nc2nccs2)c1 | inconclusive: 23.1 µM [inhibitor, partial curve] |
| CCN(C(=O)COC(=O)/C=C/c1ccc(OC(F)F)c(OC)c1)C1CCS(=O)(=O)C1 (stereo unspecified) | inconclusive: 16.4 µM [activator, single point] |
| Cc1sc(NC(=O)c2ccco2)c(CN2CCN(Cc3ccccc3)CC2)c1C | active: 13 µM |
| COc1ccc(-c2csc(NC(=O)CS(=O)(=O)c3ccc(F)cc3)n2)cc1OC | inconclusive: 32.6 µM [inhibitor, partial curve, poor fit] |
| CC(=O)Oc1ccc(C(=O)Nc2ccccc2C(=O)Nc2cccc(C(=O)O)c2)cc1 | inconclusive: 0.231 µM [inhibitor, single point] |
| Cc1cccc(NC(=O)c2sc3nc(N)c(C#N)cc3c2N)c1 | inconclusive: 4.11 µM [activator, full curve] |
| Cc1ccc(C)c(S(=O)(=O)Nc2ccc(C(=O)N3CCC3)cc2)c1 | inactive |
| CCN(c1ccccc1)S(=O)(=O)c1ccc(C(=O)N2CCCC(C(F)(F)F)C2)cc1 (stereo unspecified) | inactive |
| Cc1ccc(C)c(C(=O)COC(=O)CCN2C(=O)C3C4CCC(C4)C3C2=O)c1 (stereo unspecified) | inactive |
| NC(=O)c1ccc(/C(N)=N/S(=O)(=O)c2cc(C(F)(F)F)cc(C(F)(F)F)c2)cc1 | inactive |
| Clc1cccc(-c2cc3nc4c(c(N5CCN(c6cnccn6)CC5)n3n2)CCCC4)c1 | inconclusive: 0.82 µM [inhibitor, full curve, poor fit] |
| CCc1cccc(CC)c1NC(=O)C1SC(=Nc2ccccc2C)C(c2nc3ccccc3s2)=C1N (stereo unspecified) | inactive |
| COc1ccc(CSCC(=O)Nc2ccc(S(=O)(=O)N3CCCCCC3)cc2)cc1 | inconclusive: 29.1 µM [inhibitor, single point] |
| COc1ccc(C(=O)Nc2nccs2)cc1[N+](=O)[O-] | inconclusive: 20.6 µM [activator, single point] |
| CC(=O)N1c2ccc(S(=O)(=O)N3CCC(C(=O)Nc4cccc(Cl)c4)CC3)cc2CC1C (stereo unspecified) | inconclusive: 20.6 µM [inhibitor, partial curve, poor fit] |
| COc1ccc(NC(=O)c2ccc(NC(=O)CN3CCC(C(N)=O)CC3)cc2)cc1 | inconclusive: 23.1 µM [activator, partial curve] |
| CCOC(=O)/C=C/C(=O)OCC(=O)Nc1c(Cl)cccc1Cl | inactive |
| O=C(Cc1c[nH]c2ccccc12)N1CCN(c2ccccc2)CC1 | inconclusive: 29.1 µM [inhibitor, single point] |
| Cc1nonc1CC(=O)NC1CCCc2c1cnn2-c1ccc(F)cc1F (stereo unspecified) | inactive |
| COCCOC(=O)c1[nH]c2c(c1C)C(=O)CC(c1ccco1)C2 (stereo unspecified) | inactive |

| SMILES | Potency |
| --- | --- |
| COc1ccc(CC(=O)OCC(=O)NC2CCCCC2)cc1 | inconclusive: 0.651 µM [activator, full curve] |
| N#CC(C#N)=C/C(C#N)=C(/N)N1CCN(c2ccc(Cl)cc2)CC1 | inconclusive: 23.1 µM [inhibitor, partial curve] |
| Cc1ccccc1NS(=O)(=O)c1ccc(C(=O)NCC(c2ccccc2)N(C)C)cc1 (stereo unspecified) | inactive |
| Cc1ccc(CNC(=O)c2nccnc2C(=O)O)cc1 | inactive |
| Cc1cc(Cl)ccc1NC(=S)N1CCN(Cc2ccc3c(c2)OCO3)CC1 | inactive |
| CCCCc1ccc(NC(=S)NN2CCOCC2)cc1 | inconclusive: 25.9 µM [activator, single point] |
| N#CCc1ccc(Oc2ccc([N+](=O)[O-])cn2)cc1 | inconclusive: 29.1 µM [activator, partial curve, poor fit] |
| O=C(Cc1cccc2ccccc12)N/N=C/c1ccc(Sc2cccc3cccnc23)o1 | active: 16.4 µM |
| Cc1ccc(NC(=O)C2C3/C=C\CCCCC32)cc1 (stereo unspecified) | inconclusive: 8.2 µM [activator, partial curve] |
| c1ccc(C2=Nn3c(nnc3-c3ccncc3)SC2)cc1 | active: 8.2 µM |
| O=C(Nc1cccc2cccnc12)c1cccc([N+](=O)[O-])c1 | inconclusive: 20.6 µM [activator, partial curve, poor fit] |
| Cc1ccc(NC(=O)c2nc[nH]c2C(=O)N[C@H](C)c2ccccc2)cc1 | inactive |
| CC(C)C(=O)Nc1cccc(-c2cnc3ccccc3n2)c1 | inactive |
| Cc1cccc(-n2ncc3c(NC(C)C)ncnc32)c1 | inconclusive: 2.59 µM [activator, partial curve] |
| Nc1c2ccccc2nc2ccccc12 | inconclusive: 23.1 µM [inhibitor, single point] and inconclusive: 31.6 µM [inhibitor, single point] |
| COc1ccc(CNC(=S)Nc2ccccc2)cc1Cl | inactive |
| COCCn1c(=NC(=O)C2COc3ccccc3O2)sc2cc(S(N)(=O)=O)ccc21 (stereo unspecified) | inconclusive: 13 µM [inhibitor, partial curve, poor fit] |
| Cc1nc2ccccn2c1C(=O)N/N=C/c1cc(C)n(-c2ccc(Br)cc2)c1C | inconclusive: 23.1 µM [inhibitor, single point] |
| CC(=O)c1cccc(N=Cc2c(O)c3ccccc3oc2=O)c1 | inactive |
| Cc1ccc(C)c(NS(=O)(=O)c2ccc(OCC(=O)NCc3ccco3)cc2)c1 | inconclusive: 23.1 µM [inhibitor, partial curve, poor fit] |
| Cc1cc(C)c2c(N)c(C(=O)N/N=C/c3cccnc3)sc2n1 | inconclusive: 9.2 µM [activator, partial curve, poor fit] |
| CC(=O)Nc1cccc(NC(=O)C2CCCN2C(=O)Nc2ccccc2C)c1 (stereo unspecified) | inconclusive: 1.16 µM [activator, single point] |
| CCCCNC(=S)N(C)/N=C/c1ccc(F)cc1 | inactive |
| O=C(c1cc2ccccc2oc1=O)N(c1ccccc1)C1C=CS(=O)(=O)C1 (stereo unspecified) | inconclusive: 20.6 µM [activator, partial curve, poor fit] |

| SMILES | Potency |
| --- | --- |
| Cc1c(C(=O)OCC(=O)c2c(N)n(CC(C)C)c(=O)n(C)c2=O)oc2ccccc12 | active: 10.3 µM |
| CCCOC1CCCN(C(=O)c2ccc3oc(C(C)C)nc3c2)C1 (stereo unspecified) | inconclusive: 14.6 µM [activator, partial curve] |
| CN(CCOc1ccc(Cl)cc1)C(=O)Cc1ccc(S(=O)(=O)N2CCOCC2)s1 | inconclusive: 16.4 µM [inhibitor, single point] |
| Cc1cc(C)c(C(=O)Nc2ccccc2)c(CC(C)(C)C(=O)O)c1 | inactive |
| Cc1ccc(-n2c(C(C)C)nc3oc4ccccc4c(=O)c3c2=O)cc1 | inconclusive: 10.3 µM [activator, partial curve] |
| Cc1cccc(NC(=O)c2c(O)c3ccccc3[nH]c2=O)c1 | inconclusive: 3.66 µM [activator, partial curve] |
| COc1ccc(C2C(C#N)=C(N)Oc3cc(C)[nH]c(=O)c32)cc1OC (stereo unspecified) | inactive |
| Cc1nc(N2CCN(C(=O)c3ccco3)CC2)c2c3c(sc2n1)CCCC3 | active: 18.4 µM |
| CCOC(=O)c1ccccc1NC(=S)N1CCN(C(=O)c2ccco2)CC1 | inconclusive: 6.51 µM [inhibitor, partial curve] |
| Cc1ccc(S(=O)(=O)Oc2ccc3ccc(O)cc3c2)cc1 | inactive |
| C/C(CC(=O)Nc1ccc(N(C)C)cc1)=N\NC(=O)c1ccc(Cl)cc1Cl | inactive |
| COc1ccccc1NC(=O)Nc1nn(C)c2cccc(N(C)C)c12 | inconclusive: 29.1 µM [inhibitor, single point] |
| Nn1c(SCC(=O)NC(=O)NCc2ccco2)nnc1-c1ccc(OC(F)F)cc1 | inactive |
| CCCN(CC(=O)Nc1ccc(NC(C)=O)cc1)CC(=O)Nc1ccc(F)c(F)c1F | inactive |
| CC(C)Oc1cccc(C(=O)C2CCCN(C(=O)CCn3cnnn3)C2)c1 (stereo unspecified) | inactive |
| Cc1ccc(/C=N/NC(=O)Cc2cccn2C)cc1 | inconclusive: 23.1 µM [activator, partial curve] |
| COc1ccc(C2(O)CCN(CCCCOc3ccccc3)CC2)cc1 | inactive |
| O=c1c2cccc(Cl)c2nc2n1Cc1ccccc1-2 | inconclusive: 20.6 µM [activator, partial curve] |
| CCOC(=O)N1CCN(C(=O)c2ccc(Cn3c(=S)[nH]c4cc(OCC)c(OCC)cc4c3=O)cc2)CC1 | inconclusive: 0.0052 µM [activator, full curve, poor fit] |
| Cc1ccc(NCc2ccccc2O)cc1 | inconclusive: 20.6 µM [activator, partial curve] |
| CCC(=O)Nc1ccc(NC(=O)c2ccco2)cc1 | inconclusive: 18.4 µM [activator, partial curve] |
| Cn1c(-c2ccc(F)cc2)cnc1SCC(=O)Nc1ccccc1 | inconclusive: 29.1 µM [inhibitor, single point] |
| O=S(=O)(c1ccccc1)N1CCN(c2ccnc3cc(Cl)ccc23)CC1 | inconclusive: 20.6 µM [inhibitor, single point] |
